# Test results reported in patent US20130280758A1 (Regeneron, published 2013).
# No constants are given. Whether binding was seen depends on the method and setting. Some binding calls cover weakened binding; strength is not graded here.
# B1: FD1-Fc-FD1 (Fc fusion, human)
# chain (part 1 of 2): FRDCADVYQAGFNKSGIYTIYINNMPEPKKVFCNMDVNGGGWTVIQHREDGSLDFQRGWKEYKMGFGNPSGEYWLGNEFIFAITSQRQYMLRIELMDWEGNRAYSQYDRFHIGNEKQNYRLYLKGHTGTAGKQSSLILHGADFSTKDADNDNCMCKCALMLTGGWWFDACGPSNLNGMFYTAGQNHGKLNGIKWHYFKGPSYSLRSTTMMIRPLDF
# chain (part 2 of 2): B1 chain (part 1 of 2)
# notes: domain: fibrinogen domain of Ang1; also called BA1; not shown: Fc
# Target: rat Tie-2 (rTie-2), as used in BIAcore analysis (rat)
# Experiment: BIAcore, reference molecule
binder,measurement,value
B1,binding,binds
